Among the data in PubChem BioAssay AID2685 (National Center for Advancing Translational Sciences (NCATS), 2010) are cell number change and AC50 values, retold here.

This assay in a line: qHTS Assay for Lipid Storage Modulators in Drosophila S3 Cells.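 As to cell number change: cells counted by Cell Tracker Red CMTPX staining in the red channel.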 Conditions: BODIPY lipid droplet fluorescence, 18-24 h; for cell number change: measured here: cell count max response, cells fed with added oleic acid. An outline of the steps: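 Drosophila S3 cells loaded with oleic acid (400 uM, as added) and compounds at several concentrations; lipid droplets imaged by 488-nm laser-scanning cytometry, 500–530 nm intensity and object ratio to cell channel. Percent activity normalized to 20 uM Triacsin C.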
(In general: qHTS replaces the single test concentration by a dilution series.)

[1] abbreviates: measured here: lipid fluorescence (Fed channel) AC50, cells fed with added oleic acid.
Setting [2] is: measured here: cell number channel AC50, cells fed with added oleic acid.

Some of the results follow. Further columns of the screen follow, without active or inactive calls. Most of these compounds were active or inconclusive in the main read-out, so they are no random draw. Words in brackets tell the shape of the fitted curve; partial curves, single points and poor fits give uncertain potencies.

As usually defined, the AC50 is the concentration giving half of the maximal activity seen. Turning to `Cc1ccccc1OCCn1c(=S)[nH]c2ccccc21`, the cell number change was -3.85%. Also, the AC50 under setting [1] is 29.1 µM [rising, single point].

On to `CCOc1ccc(CN(C)C(=O)c2ccc3ccccc3n2)cc1`, for which the cell number change worked out at 12.5%. Besides, under setting [1], the AC50 is 10.3 µM [falling, partial curve, poor fit].

In the case of `COc1ccc(CC(=O)Nc2nc(C)cs2)cc1OC`, the cell number change is -29.1%. Further, under setting [1], the AC50 is 2.06 µM [rising, partial curve].

As to `Cc1nc2sc(C(c3ccc(C(C)C)cc3)N3CCN(CCO)CC3)c(O)n2n1` (stereo unspecified), the cell number change is -79.6%. For the same molecule, under setting [2], the half-maximal activity concentration (AC50) was 29.1 µM [falling, single point].

Take `CCOc1cc2[nH]c(=S)n(CCCC(=O)NCc3ccccn3)c(=O)c2cc1OCC`: the cell number change is -24.8%. In addition, under setting [2], the AC50 was 2.06 µM [falling, partial curve, poor fit]. Moreover, the AC50 under setting [1] was 2.06 µM [falling, partial curve].

Turning to `O=c1[nH]c2ccccc2[n+]([O-])c1-c1ccccc1`, the cell number change is -0.271%.

Take `Cc1c(OC(=O)CNC(=O)OC(C)(C)C)ccc2c3c(c(=O)oc12)CCC3`: the cell number change came out at 1.78%. Moreover, the AC50 under setting [1] is 1.64 µM [falling, partial curve].

In the case of `N#Cc1c(-c2ccccc2)c(-c2ccccc2)nn(CC(=O)NNC(=O)Nc2ccccc2)c1=O`, the cell number change turned out to be 28.7%. Also, under setting [2], the AC50 was 6.51 µM [rising, single point]. The AC50 under setting [1] was 6.51 µM [rising, single point].

As for `Cc1ccc(-c2ccc(/C=N/O)o2)cc1[N+](=O)[O-]`, the AC50 under setting [2] is 0.291 µM [rising, partial curve].

For `CCc1nnc(N/N=C/c2cc(Br)c(O)cc2O)n1N`, the cell number change is -39.4%. Besides, under setting [2], the AC50 was 10.3 µM [falling, partial curve].

For `COCCn1c(=O)[nH]c2cc(C(=O)NCCc3ccc(S(N)(=O)=O)cc3)ccc2c1=O`, under setting [1], the AC50 was 0.517 µM [falling, single point].

With `CC(=O)Nc1cccc(OCCCNC(=O)c2ccc(C(C)(C)C)cc2)c1`, the cell number change is 26.3%. Also, the AC50 under setting [2] is 0.0291 µM [rising, full curve, poor fit]. The AC50 under setting [1] is 1.3 µM [rising, full curve, poor fit].

Consider `COc1ccc(CC(=O)OC(C)CN2CCCCC2)cc1` (stereo unspecified), for which the cell number change is -4.18%. Besides, the AC50 under setting [1] was 0.00517 µM [falling, full curve].

Regarding `C=CCN(Cc1ccc(Cl)s1)C(=O)CNC(=O)CNC(=O)c1ccc(Cl)cc1Cl`, the cell number change stood at 13.7%. The AC50 under setting [1] was 18.4 µM [rising, partial curve, poor fit].

With `Cn1cccc1/C=N\NC(=O)C1COc2ccccc2O1` (stereo unspecified), the cell number change is -1.15%. In addition, the AC50 under setting [1] is 29.1 µM [rising, single point].

As to `COc1ccc(N(CC(=O)NCc2ccccc2Cl)S(=O)(=O)c2c(C)noc2C)cc1`, the cell number change was determined as 15.3%. In addition, under setting [1], the AC50 was 0.58 µM [rising, single point].

Consider `Cn1c(=O)c2c(nc(CN3CCOCC3)n2CCc2ccccc2)n(C)c1=O`, for which the AC50 under setting [2] is 6.51 µM [rising, partial curve, poor fit].

For `CCOC(=O)c1cc(OCC(=O)NC(C)C(C)C)cc(C(=O)OCC)c1` (stereo unspecified), the cell number change was -0.79%. In addition, the AC50 under setting [1] was 0.146 µM [rising, full curve, poor fit].

Consider `CCN(C(=O)Cc1c(C(=O)O)n(C)c2ccccc12)c1cccc(C)c1`, for which the cell number change is -8.11%.

Consider `COC(=O)[C@@H](Cc1c[nH]c2ccccc12)NC(=O)CNC(=O)c1ccccc1OC`, for which the cell number change is 19.7%.

As to `NS(=O)(=O)c1ccc(-c2cccc(/C=C3\SC(=O)NC3=O)c2)cc1`, the cell number change is -1.8%.

With `CCC(=O)n1nc(-c2cccnc2)nc1NCc1ccc(OC)cc1`, the cell number change is -11.8%. Besides, the AC50 under setting [1] was 25.9 µM [falling, single point].

For the molecule `CSCCC(NC(=O)COc1ccccc1)C(=O)NCCOc1ccccc1` (stereo unspecified), the cell number change is -13.1%. In addition, under setting [2], the AC50 is 6.51 µM [falling, single point]. For the same molecule, under setting [1], the AC50 is 6.51 µM [falling, single point].

On to `CC(=O)c1ccc(-n2c(C)ccc2-c2ccccc2)cc1`, for which the AC50 under setting [1] is 6.51 µM [falling, single point].

As for `O=C(CCCN1C(=O)[C@H]2CC=CC[C@H]2C1=O)NCc1nc(-c2ccccc2)no1`, the cell number change amounted to 16.1%.

With `COc1cccc(CNC(=O)COC(=O)c2ccc(C(=O)c3ccccc3)cc2)c1`, the cell number change is -55.3%. The AC50 under setting [2] was 20.6 µM [falling, partial curve, poor fit]. Under setting [1], the AC50 is 23.1 µM [falling, partial curve, poor fit].

For `Cc1ccc(O)c(NC(=O)c2cccc(S(=O)(=O)N3CCCCC3)c2)c1`, the cell number change is -13.1%.

For the molecule `CCN1CCN(S(=O)(=O)c2ccc(Cl)c(C(=O)NC3CCCCC3)c2)CC1`, the cell number change was determined as 1.76%. Besides, the AC50 under setting [1] was 6.51 µM [rising, single point].

With `CC(C)(C)OC(=O)N1CCN(C(=O)c2nc[nH]c2C(=O)N2CCN(c3ccccc3)CC2)CC1`, the cell number change came out at 10.5%. Also, the AC50 under setting [2] is 0.092 µM [falling, single point].

As to `O=C(OCc1cc2ccccc2[nH]c1=O)C1CCCCC1`, the cell number change was -13.4%. In addition, the AC50 under setting [1] is 32.6 µM [falling, single point].

Regarding `COc1ccc(OC(=O)COc2cccc(C)c2)cc1`, the cell number change was -8.52%.

`CCOc1ccc(N2CC(C(=O)NCCN3C(=O)S/C(=C/c4cccnc4)C3=O)CC2=O)cc1` (stereo unspecified): the cell number change is -39.2%. For the same molecule, the AC50 under setting [2] was 11.6 µM [falling, partial curve]. In addition, the AC50 under setting [1] is 4.11 µM [falling, partial curve].

For `Cc1cc(C)cc(C(=O)NCC(=O)OCC(=O)N2c3ccccc3NC(=O)C2(C)C)c1`, the cell number change came to 5.28%. Besides, the AC50 under setting [1] is 0.92 µM [rising, single point].

Take `CC1Cc2ccccc2N1C(=O)CO/N=C/c1ccc(OC(F)F)cc1` (stereo unspecified): the cell number change came out at 0.689%.

For the molecule `CC(=O)N1CCN(c2ccc(Oc3ccc([N+](=O)[O-])c(C(F)(F)F)c3)cc2)CC1`, the cell number change was determined as 3.23%.

Regarding `CN1C(=O)CS(=O)c2ccc(C(=O)NCCC3=CCCCC3)cc21` (stereo unspecified), the cell number change was -42%. In addition, the AC50 under setting [2] was 8.2 µM [falling, partial curve, poor fit]. Also, the AC50 under setting [1] is 14.6 µM [falling, partial curve].

As to `Cc1ccccc1NC(=O)c1cccc(N2C(=O)C3C4CCC(C4)C3C2=O)c1` (stereo unspecified), the cell number change is 18.3%. The AC50 under setting [1] was 3.26 µM [rising, partial curve].

As to `Clc1ccc(-n2ncc3c(NCc4ccc5c(c4)OCO5)ncnc32)cc1`, the cell number change came to 3.24%.

With `Cc1ccc(C(=O)COC(=O)C2CC(=O)N(c3nc(-c4ccccc4)cs3)C2)cc1` (stereo unspecified), the cell number change came out at 1.71%.

Take `Fc1ccc(CN2CCSCC2)cc1Br`: the cell number change is -19.8%.

Consider `CCOC(=O)C(C)Sc1nc2c(c(=O)[nH]c(=O)n2C)n1CCc1ccccc1` (stereo unspecified), for which the cell number change was -4.7%. Also, under setting [1], the AC50 is 6.51 µM [rising, single point].

For `COc1ccc(S(=O)(=O)N(CCCN2CCCC2=O)Cc2cc3cc(C)c(C)cc3[nH]c2=O)cc1`, the cell number change was 68.7%. The AC50 under setting [2] is 0.326 µM [rising, full curve]. Moreover, under setting [1], the AC50 is 1.46 µM [rising, partial curve].

As to `Cc1cc(S(=O)(=O)N(Cc2ccc3c(c2)OCO3)CC2CCCO2)ccc1-n1cnnn1` (stereo unspecified), the AC50 was 1.3 µM [rising, partial curve] under setting [2] and 1.3 µM [rising, full curve] under setting [1].

For the molecule `O=S(=O)([O-])CCC[n+]1c(/C=C\Nc2ccccc2)oc2ccc(-c3ccccc3)cc21`, the cell number change is -91%. In addition, the AC50 under setting [2] is 16.4 µM [falling, single point].

Take `Cc1ccccc1C(=O)NC1CC2CCCC(C1)N2Cc1ccccc1` (stereo unspecified): the cell number change came to 9.94%. The AC50 under setting [1] was 0.103 µM [rising, full curve, poor fit].

Regarding `CCN(CC)CCNC(=O)c1ccc(NC(=O)c2ccc(COc3ccccc3)cc2)cc1`, the cell number change was 88.1%. Moreover, under setting [2], the AC50 was 29.1 µM [rising, single point].

Take `CN1CCN(C2=Nc3c(Cl)cc(Cl)c4cccc2c34)CC1`: the cell number change was -4.96%. Also, the AC50 under setting [1] was 0.82 µM [rising, single point].

In the case of `CCOC(=O)C1(S(=O)(=O)c2ccccc2)CCN(Cc2ccc(Cl)cc2)CC1`, under setting [2], the AC50 was 0.0651 µM [falling, full curve, poor fit].

As to `CNC1(C(N)=O)CCNCC1`, the cell number change is -3.11%. Also, under setting [1], the AC50 was 6.51 µM [falling, single point].

On to `O=C(N/C(=C\c1ccc(Cl)cc1)C(=O)N1CCCCC1)c1ccco1`, for which the cell number change is -13.2%. For the same molecule, the AC50 under setting [2] was 0.092 µM [falling, full curve, poor fit].

As for `COc1cc(/C=N/NC(=O)c2nnn(-c3nonc3N)c2C(C)C)ccc1OCc1ccccc1`, the cell number change was found to be 35.6%. The AC50 under setting [2] was 29.1 µM [rising, single point].

Take `CN=C(Nc1cc(C)nn1CCC#N)c1ccccc1`: the cell number change was 4.81%.

Take `Cc1cccc(SC2CCN(C(=O)C3CCC(=O)N(C4CC4)C3)CC2)c1` (stereo unspecified): the cell number change was -9.79%. In addition, the AC50 under setting [1] is 0.82 µM [falling, full curve, poor fit].

With `CCCCc1ccc(NC(=O)NCc2cccnc2)cc1`, the cell number change is -7.8%. Besides, under setting [1], the AC50 is 3.66 µM [rising, single point].

Turning to `Cc1cc2cc(CN(CCCO)S(=O)(=O)c3cccc4nsnc34)c(=O)[nH]c2cc1C`, the AC50 under setting [2] was 0.651 µM [falling, single point] and the AC50 under setting [1] was 0.13 µM [falling, full curve, poor fit].

Regarding `O=C(COc1ccc2c3c(c(=O)oc2c1)CCC3)Nc1ccc(CN2CCOCC2)cc1`, the cell number change is 23.3%. Further, the AC50 under setting [2] is 4.61 µM [rising, single point].

As to `O=C(CNC(=O)c1sc2ccccc2c1Cl)NCc1cccnc1`, under setting [1], the AC50 was 29.1 µM [falling, single point].

As for `COc1ccc(OCC(=O)OCC(=O)Nc2ccc(S(=O)(=O)N3CCCCC3)cc2)cc1`, the cell number change is -24.4%. The AC50 under setting [1] is 3.66 µM [falling, full curve].

`O=C(NC(=S)NCc1ccccc1)c1ccccc1Br`: the cell number change was found to be 11.7%. The AC50 under setting [1] was 29.1 µM [falling, single point].

In the case of `COc1ccc(/C=C(\C#N)c2n[nH]c(Cn3cncn3)n2)cc1`, the cell number change is 79.4%. For the same molecule, the AC50 under setting [2] is 16.4 µM [rising, partial curve].

With `O=C(NC(C(=O)c1ccccc1)N1CCCCC1)c1ccccc1` (stereo unspecified), the cell number change is 8.59%. Also, under setting [1], the AC50 was 29.1 µM [rising, single point].
